The supplement of paper PMC3334620
In all, about 33,000 sequences were measured (“E-score (-0.5 to 0.5)”: median about -8e-05, highest 2% from about 0.23 on). Some of the results follow.

molecular target: T1, Nrg2 (UniProt P38082); assay: PBM E-score (8-mer binding enrichment) (E-score (-0.5 to 0.5)); higher = stronger / more preferred TF binding; details: protein concentration: 100 nM; construct: GST-full length
T1 sequence: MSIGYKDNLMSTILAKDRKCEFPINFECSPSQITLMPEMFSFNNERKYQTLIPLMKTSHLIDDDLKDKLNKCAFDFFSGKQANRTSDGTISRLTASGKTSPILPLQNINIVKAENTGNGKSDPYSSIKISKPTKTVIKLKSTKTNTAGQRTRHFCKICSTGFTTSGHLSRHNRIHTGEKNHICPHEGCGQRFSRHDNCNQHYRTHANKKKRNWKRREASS
How it was run: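 Yeast transcription factors carrying a GST tag, as full-length proteins or DNA-binding domains, were produced by PURExpress in vitro transcription/translation. About 100-200 nM protein was applied to universal all-10-mer Agilent arrays, double-stranded by primer extension on fresh or once-stripped slides. Bound protein was detected with fluorescent anti-GST, and scans were normalised with masliner. The Universal PBM Analysis Suite gave each ungapped eight-base word, pooled with its reverse complement, an E-score, a modified Wilcoxon-Mann-Whitney statistic.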

Sequence	PBM E-score
ATTGCGTG	-0.0627
GGTCGAGA	0.0272
ATGTCGAG	-0.0763
CACCTACA	-0.027
GCAAGCTA	-0.00443
ATTAGATC	0.0519
AACTGACT	-0.167
GCGTACAC	-0.0949
ATCGGATG	0.0179
AACGTAAG	0.0335
CTTGCAGC	-0.0798
GATTCTGA	-0.00417
ATCTTTAC	0.0513
CAATACTG	0.03
CCCCCAGA	-0.484
AGAGAAGA	-0.173
ACGACGAA	0.107
ACTCTACT	0.0768
AAAGTCTT	-0.148
TTGAAAAA	0.0802
CGTAATTC	0.0958
AACTTATG	-0.0218
ATTGCGTC	0.237
CACCCAAC	-0.0412
CTTAACCC	-0.101

Sequence	PBM E-score
ACTTGCAG	-0.0514
CGCCAGTC	-0.131
ATAAGCTA	-0.0795
AGCCGGCC	0.0394
ACCTACTC	0.0619
AAGCTTGA	-0.0785
CACGGTCA	-0.081
AAGTCAGA	-0.0338
GAAATATC	0.052
AGTATGTC	0.103
GCCCAAAC	0.0141
CCCTTTCC	-0.117
ACCAACAA	0.245
AAAGAGAA	0.0136
CCTCAAGA	-0.0963
AGGTAACT	0.0986
AGCGAAAA	0.0209
ATGGCCAG	0.172
TCAACGAA	0.0485
CAATCTTA	-0.0766
AACGCGGT	0.0753
ACTTTCCC	-0.123
CTTGTTTA	-0.0191
GTATGCCA	-0.0357
ACCTTGCA	-0.0793

Sequence	PBM E-score
CCGTGATC	0.0111
ACCAGCGG	-0.0916
TCTTATAA	0.0658
TCGGATAA	-0.0774
AAAAGGGT	0.148
AGTCCCCA	-0.0879
ATCGCCGA	-0.152
CGGTCAGA	-0.145
ATTAAAGC	0.0945
TCACTCCA	0.0355
CAGCGCTC	-0.0841
CGCGTAAC	-0.159
CTTCGCGA	0.0778
CGTTATAA	-0.058
AAATGGAC	0.19
AGCAGTTC	-0.109
TCAGGTAA	-0.0616
AGGCCATC	-0.0922
ATCAGCCA	-0.0618
TACGGGGA	0.016
AGACTGTG	-0.103
CTAATGTC	0.0636
AGTTGTTC	0.00173
CAAAAAGG	-0.0881
ATATCCGC	-0.0377

Sequence	PBM E-score
GTACGGAA	0.0949
ATATCGGA	0.116
CAGCCTGG	-0.0765
CTCCTACC	-0.264
TACCCGTA	-0.0153
AAATCATT	-0.154
CTACGGTC	-0.302
CACAGTAC	0.0168
CTCCATTC	-0.0548
AGAATCCC	0.172
CTCGGGGC	-0.0297
CCCTTTTC	0.186
ATTGCTCC	-0.105
CAGTCCGG	-0.298
CACAACAC	0.107
TACACCTA	0.0327
CATAGGCG	-0.076
CCTTCCAA	-0.0655
GTATAGCA	0.078
GGGCAAAA	0.105
ACGGGCAT	-0.123
GCTAGAGC	-0.177
GCAGGGAC	0.28
GAACGCTA	-0.186
CCGGTGCC	-0.197

Sequence	PBM E-score
ATGCCATC	0.0991
AACCCGGA	-0.123
AGGCTGTG	-0.112
ACCTAGCC	-0.171
GTTCAGTA	0.0427
ACGCGGTA	-0.152
GCATATAC	-0.0328
CTCGGATC	0.0434
CAACTCTG	-0.136
AACAGACC	-0.0463
CGTTATCC	0.0133
CCTGACCG	-0.0573
CATTCGCC	-0.06
AAAGATTT	0.0643
GAGTTTGC	0.0418
CACTTAAG	0.0926
CTAAGCTC	-0.157
ACGGCCCT	-0.0277
ATGGTGCG	-0.153
GCCCATGA	0.00643
GCACGCCC	-0.0884
AATCATGT	0.0762
GGTCCTCA	-0.15
AGGTGACA	0.0654
ACATAACA	0.0414

Sequence	PBM E-score
AATGGCAG	0.0917
AGTCACCA	-0.102
ATATTTGA	0.0791
ATGCCTTA	-0.272
CCCGTCTA	-0.0372
CATTACCG	-0.149
CGATTAAC	0.0113
GAGGGGAC	0.0965
ACACATCA	-0.18
ACAGACCG	-0.00691
ACTGTCTC	0.0547
TCTGGACA	-0.0443
ACAGAGCG	-0.219
ATTGTGCG	-0.0707
ACTTAAGT	0.0749
AGCTTCGA	-0.00696
AGGATTCG	0.0081
CATGAGTA	-0.134
AATGGGCC	-0.0664
ATCACAGC	0.0436
CCCATCAC	-0.0783
CGAGAAGC	0.0357
ACCGGTCG	-0.251
CTGTCATA	0.0533
CCCTGATC	0.0782

Sequence	PBM E-score
ACTCCGCA	-0.0638
ACAGAACA	0.149
CCTGCTAC	0.0716
TAGGCGCA	0.13
CCATGGCA	-0.0119
CACAATCG	-0.0996
ACCCGGGA	0.207
GCGGAGTA	0.0162
CCGCTAAC	0.0957
GAAACAGC	-0.0901
AGGTTACT	-0.0749
CAGCGGAA	-0.152
CAATATCA	0.0345
GTCAGAAC	-0.0554
CCGACCCG	-0.0742
GACGATTA	0.0203
GGAGTTAC	0.0502
AATCACAC	0.037
GAAGACGC	-0.0204
CACCCCGG	-0.148
GCTAAATA	0.037
CTATCTTA	0.116
CAAATGTA	0.161
CCGGGTGC	-0.0823
CTCAACAG	-0.0628

Sequence	PBM E-score
CCCAACAC	-0.00204
CACTATGA	-0.0462
ACTATAAT	0.131
AGGAAATC	0.086
CCACAAAA	0.112
ACGTTGCG	0.0404
GCCATAGC	0.0313
CCTGTAAC	0.087
AAATCATC	0.162
AAAAATGT	-0.0423
AGACTCTG	0.0932
AAGAGGCA	0.0561
GTTGTATA	0.00908
AAGTAGCT	-0.107
AGAACAAG	0.223
AATGATCC	-0.182
AGTTAGAG	0.108
CTGTTTCC	-0.208
CACGTGCC	0.0142
CCAAGCAA	0.0813
GTTAGTGA	-0.0863
AGAATTGA	-0.0242
AAAGTCGG	-0.161
ACGTGTGC	-0.103
AGGTCTGA	0.0872

Sequence	PBM E-score
AGCAGTGG	0.00894
GACGGAAC	-0.186
TTATCCAA	0.152
AACGCCGA	-0.0271
CTGCGACC	-0.103
GGACAATA	0.239
ATAGCGGA	-0.112
CTAGCTTA	0.0567
AGCGGAAC	-0.046
GACAGCGC	0.0161
CCTTGCCG	-0.0398
AGAAAAAT	0.045
ACTCGAGG	0.162
CTTTCATC	0.0159
TCATACGA	0.0412
CGCGGCCC	0.0754
GAGCTGAC	0.146
CTTTAGCA	-0.112
CGGAAGAC	-0.0798
